{"source": "PubChem BioAssay AID504834", "about": "(National Center for Advancing Translational Sciences (NCATS), 2011)", "note": "The campaign covered roughly 320,000 compounds. About 22,000 (6.9%) were called active. The shares of active, inactive and inconclusive entries below differ from those in the screen. The call rests on the fitted dose curve; in most records, active means well fitted inhibition curve with a large enough effect; inconclusive means small, poorly fitted or top-dose-only effect, or another doubt; inactive means no such curve, though single readings can be large or run the other way. Potencies of inconclusive entries are doubtful fits and often do not repeat. Potency means the concentration at half of the fitted maximal effect.", "data": [{"assay": "Primary qHTS for delayed death inhibitors of the malarial parasite plastid, 96 hour incubation", "conditions": "P. falciparum luciferase reporter growth; series mostly up to 28.7 µM", "procedure,_shortened": "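Readout is luminescence from an integrated firefly luciferase in P. falciparum. Red cells, 2% hematocrit and 0.05% parasitemia final, were cultured with compound through two parasite generations (96 hours) at 37 C, 5% CO2.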", "values": [{"smiles": "CC(C)CCNC(=O)c1ccc(-n2cnc3cccnc32)cc1", "Potency": "inactive"}, {"smiles": "COc1ccccc1C(C#N)c1cccc(Cl)n1", "note": "(stereo not drawn)", "Potency": "inactive"}, {"smiles": "CS(=O)(=O)N1CCN(C(=S)NCc2ccc(Cl)cc2)CC1", "Potency": "inconclusive: 11.7 µM [inhibitor, single point]"}, {"smiles": "Cc1ccc2nc(SCC(=O)Nc3ncccn3)[nH]c2c1", "Potency": "inactive"}, {"smiles": "CC(=O)c1c(C)[nH]c(C(=O)Nc2ccc(F)c(F)c2F)c1C", "Potency": "inconclusive: 16.5 µM [inhibitor, single point]"}, {"smiles": "CCOC(=O)Cc1csc(NC(=O)CCCCCN2C(=O)c3ccccc3C2=O)n1", "Potency": "inconclusive: 18.5 µM [inhibitor, single point]"}, {"smiles": "O=C(Nc1ccc2nc(-c3ccco3)[nH]c2c1)c1cccs1", "Potency": "inconclusive: 3.7 µM [inhibitor, single point]"}, {"smiles": "Clc1cccc(Cl)c1CSc1nnc2ccccn12", "Potency": "inactive"}, {"smiles": "CCCc1cc(=O)[nH]c(SCC(=O)Nc2ccc(C)cc2)n1", "Potency": "inconclusive: 10.4 µM [inhibitor, single point]"}, {"smiles": "COc1ccc(CCNC(=O)c2cc(=O)c3ccc(C)cc3o2)cc1OC", "Potency": "inconclusive: 13.1 µM [inhibitor, single point]"}, {"smiles": "CCn1c2ccccc2c2cc([N+](=O)[O-])ccc21", "Potency": "inactive"}, {"smiles": "O=[N+]([O-])c1ccc(C2=NN(c3ccccc3)C(c3ccco3)C2)cc1", "note": "(stereo not drawn)", "Potency": "inconclusive: 18.5 µM [inhibitor, single point]"}, {"smiles": "O=c1nc2sc3ccccc3n2c(=O)n1-c1ccc(Cl)cc1", "Potency": "inactive"}, {"smiles": "CCCCNc1c(C(=O)OCC)c(C)nc2c1cnn2CC", "Potency": "active: 15.1 µM"}, {"smiles": "COc1ccc(C(=O)Nc2ccc3oc(-c4cccnc4)nc3c2)cc1OC", "Potency": "inconclusive: 16.5 µM [inhibitor, single point]"}, {"smiles": "COC(=O)CCN(C(=O)c1ccc(C)c([N+](=O)[O-])c1)c1ccccn1", "Potency": "inactive"}, {"smiles": "CC1CCN(c2ccc(S(=O)(=O)N3CCC(C)CC3)cc2N)CC1", "Potency": "inconclusive: 18.5 µM [inhibitor, single point]"}, {"smiles": "C=C1CC(C)OC(c2ccccc2OCC(O)CN2CCCCC2)C1", "note": "(stereo not drawn)", "Potency": "inactive"}, {"smiles": "O=C(/C=C/c1cccc([N+](=O)[O-])c1)N1CCN(c2ccccn2)CC1", "Potency": "inconclusive: 0.828 µM [inhibitor, partial curve, poor fit]"}, {"smiles": "CC(C)(C)NC(=O)c1nc2ccccc2s1", "Potency": "inactive"}, {"smiles": "C=CCOCC(O)Cn1c(N2CCCC2)nc2c1c(=O)[nH]c(=O)n2C", "note": "(stereo not drawn)", "Potency": "active: 6.57 µM"}, {"smiles": "Cc1ccc(C(=O)N2CCN(S(=O)(=O)c3ccc(C)cc3)CC2)cc1", "Potency": "active: 13.1 µM"}, {"smiles": "O=C(CCNC(=O)N1CC(=O)Nc2ccccc21)Nc1ccc(Cl)cc1", "Potency": "inactive"}]}]}
